# Measurements from paper doi:10.1101/2023.11.02.565342.
# By UniProt entry, the sequences of proteins in these tests, tags left out. Residues count along the entry.
# UniProt J3QMY9, 1-554, stated change not applied: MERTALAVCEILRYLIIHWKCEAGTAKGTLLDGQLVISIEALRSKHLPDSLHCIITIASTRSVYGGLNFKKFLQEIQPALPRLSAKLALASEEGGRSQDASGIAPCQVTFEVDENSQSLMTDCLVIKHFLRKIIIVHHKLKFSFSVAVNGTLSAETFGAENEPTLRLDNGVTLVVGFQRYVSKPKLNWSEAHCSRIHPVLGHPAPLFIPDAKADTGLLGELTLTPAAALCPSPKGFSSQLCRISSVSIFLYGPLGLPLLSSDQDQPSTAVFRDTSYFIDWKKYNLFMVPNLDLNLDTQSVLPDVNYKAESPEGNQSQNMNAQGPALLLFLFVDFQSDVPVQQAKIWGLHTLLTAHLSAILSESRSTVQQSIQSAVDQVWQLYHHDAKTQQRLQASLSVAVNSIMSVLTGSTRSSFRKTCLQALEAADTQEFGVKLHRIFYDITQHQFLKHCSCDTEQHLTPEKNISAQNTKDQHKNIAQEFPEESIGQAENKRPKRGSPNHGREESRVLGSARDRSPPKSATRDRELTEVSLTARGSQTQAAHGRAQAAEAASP
# The exact form of at least one protein or probe is not confirmed.
# Target: TOPOVIBLΔC25 blocked monomer (DTT/IAA treated) (Mus musculus) (UniProt J3QMY9)
# Assay: native MS
# Settings: equimolar mix, 1:1 complex at 85,731 Da
sequence,measurement,value
CTTTCCAGAAGCTACCACCATCATGTCTTCTACCACTGT (double strand) [2B39 dsDNA (native MS)],binding result,binds
